This is an account of results in PubChem BioAssay AID328 (DTP/NCI, 2004).

This assay relates to BDF1 mice, P388 leukemia ip, median survival T/C. The experiment in a line: NCI In Vivo Anticancer Drug Screen. Data for tumor model P388 Leukemia (intraperitoneal) in B6D2F1 (BDF1) mice. Particulars: T/C endpoint: median survival time, higher T/C = longer survival. As to the method:
The antitumor activity of compounds was measured in mice bearing transplantable tumors. Survival or tumor size were measured and the results are expressed as the measurement made in the treated group (T) divided by the measurement made in the vehicle treated control group (C). The tumor model used in this assay is P388 Leukemia (intraperitoneal) in B6D2F1 (BDF1) mice

Setting [1] is: dose: 5.0 mg/kg/injection, schedule: Q04DX002 (ip), vehicle: saline + alcohol.

Molecules are shown by their SMILES. The list shows only some results of the screen, not a fair sample: it gathers some chemical classes. Not every dose and run of a compound is shown. T/C: endpoint of the treated group in % of that of the vehicle group. Where survival is the endpoint, the PubChem record calls one and a half times the control and up active, and a quarter to a half above the control has no call in these data; cut-offs in other NCI protocols can differ. Schedules are NCI's codes, taken here to give the interval after Q, in days (D) or hours (H), and the number of doses after X. Some entries show no survivor count and are marked so; the dose need not have been tolerated. Some entries were tested several times; their values stand side by side, smallest first.

Regarding `CC(=O)OCC12CCC(C)CC1O[C@H]1[C@@H](O)[C@H](OC(C)=O)[C@]2(C)[C@@]12CO2` (stereo partly specified), the T/C reads like this: under setting [1], 89 % of control [survivor count not shown]; (dose: 10.0 mg/kg/injection, schedule: Q04DX002 (ip), vehicle: saline + alcohol) 105 % of control [survivor count not shown]; (dose: 20.0 mg/kg/injection, schedule: Q04DX002 (ip), vehicle: saline + alcohol) 105 % of control [survivor count not shown]; (dose: 40.0 mg/kg/injection, schedule: Q04DX002 (ip), vehicle: saline + alcohol) 98 % of control [survivor count not shown].
Consider `CC(=O)OC1C(=O)OCC23CCC4(C)OC4C2OC2CC(OC(=O)/C=C/C=C/C(=O)OCCC1C)C3(C)C21CO1` (stereo unspecified), for which the T/C was 145 % of control [survivor count not shown] (dose: 1.25 mg/kg/injection, schedule: Q01DX009 (ip), vehicle: saline + alcohol); 154 % of control [survivor count not shown] (dose: 2.5 mg/kg/injection, schedule: Q01DX009 (ip), vehicle: saline + alcohol); 172 % of control [survivor count not shown] (dose: 5.0 mg/kg/injection, schedule: Q01DX009 (ip), vehicle: saline + alcohol); 127 % of control [survivor count not shown] (dose: 10.0 mg/kg/injection, schedule: Q01DX009 (ip), vehicle: saline + alcohol).
On to `CC1=C[C@H]2O[C@@H]3C[C@H]4OC(=O)/C=C\C=C\C5OC(C/C(C)=C\C(=O)OCC2(CC1)[C@]4(C)[C@]31CO1)OC5C` (stereo partly specified), for which the T/C (dose: 1.56 mg/kg/injection, schedule: Q01DX009 (ip), vehicle: saline with Tween-80) was 123 % of control [survivor count not shown]; the T/C (dose: 3.13 mg/kg/injection, schedule: Q01DX009 (ip), vehicle: saline with Tween-80) is 130 % of control [survivor count not shown]; the T/C (dose: 6.25 mg/kg/injection, schedule: Q01DX009 (ip), vehicle: saline with Tween-80) was 130 % of control [survivor count not shown].
`CC(=O)O[C@H]1C[C@@H]2OC3C=C(C)CCC3(C)[C@@]1(C)[C@@]21CO1` (stereo partly specified): the T/C by setting is: (dose: 7.5 mg/kg/injection, schedule: Q04DX002 (ip), vehicle: saline + alcohol) 89 % of control [survivor count not shown]; (dose: 15.0 mg/kg/injection, schedule: Q04DX002 (ip), vehicle: saline + alcohol) 89 % of control [survivor count not shown]; (dose: 30.0 mg/kg/injection, schedule: Q04DX002 (ip), vehicle: saline + alcohol) 105 % of control [survivor count not shown]; (dose: 60.0 mg/kg/injection, schedule: Q04DX002 (ip), vehicle: saline + alcohol) 107 % of control [survivor count not shown].
Turning to `CC(=O)O[C@@H]1[C@@H](O)[C@H]2O[C@@H]3C=C(C)C(=O)[C@@H](O)[C@]3(CO)[C@]1(C)[C@]21CO1`, the T/C is 169 % of control [survivor count not shown] (dose: 0.8 mg/kg/injection, schedule: Q01DX009 (ip), vehicle: saline); 108 % of control [survivor count not shown] (dose: 1.73 mg/kg/injection, schedule: Q04DX003 (ip), vehicle: saline + alcohol); 117 % of control [survivor count not shown] (dose: 2.88 mg/kg/injection, schedule: Q04DX003 (ip), vehicle: saline + alcohol); 130 % of control [survivor count not shown] (dose: 4.8 mg/kg/injection, schedule: Q04DX003 (ip), vehicle: saline + alcohol); 142 % of control [survivor count not shown] (dose: 8.0 mg/kg/injection, schedule: Q04DX003 (ip), vehicle: saline + alcohol).
Turning to `CC1=CC2OC3CC4OC(=O)/C=C/C=C/C(=O)OCCC(C)C(O)C(=O)OCC2(CC1O)C4(C)C31CO1` (stereo unspecified), the T/C reads like this: (dose: 62.5 micrograms/kg/injection, schedule: Q01DX009 (ip), vehicle: saline with Tween-80) 96 % of control [survivor count not shown]; (dose: 125.0 micrograms/kg/injection, schedule: Q01DX009 (ip), vehicle: saline with Tween-80) 116 % of control [survivor count not shown]; (dose: 250.0 micrograms/kg/injection, schedule: Q01DX009 (ip), vehicle: saline with Tween-80) 118 % of control [survivor count not shown]; (dose: 500.0 micrograms/kg/injection, schedule: Q01DX009 (ip), vehicle: saline with Tween-80) 142 % of control [survivor count not shown].
In the case of `CC(=O)OC[C@]12C[C@H](OC(=O)CC(C)C)C(C)=C[C@H]1OC1[C@H](O)[C@@H](OC(C)=O)[C@@]2(C)[C@@]12CO2`, the T/C is 153 [survivor count not shown], 169 [survivor count not shown], 183 % of control [survivor count not shown] (dose: 1.08 mg/kg/injection, schedule: Q04DX003 (ip), vehicle: saline + alcohol); 131 % of control [survivor count not shown] (dose: 1.25 mg/kg/injection, schedule: Q04DX002 (ip), vehicle: saline + alcohol); 117 % of control [survivor count not shown] (dose: 1.3 mg/kg/injection, schedule: Q04DX003 (ip), vehicle: other); 170 % of control [survivor count not shown] (dose: 1.3 mg/kg/injection, schedule: Q04DX003 (ip), vehicle: saline + alcohol); 152 [survivor count not shown], 165 [survivor count not shown], 183 % of control [survivor count not shown] (dose: 1.8 mg/kg/injection, schedule: Q04DX003 (ip), vehicle: saline + alcohol); 188 % of control [survivor count not shown] (dose: 2.16 mg/kg/injection, schedule: Q04DX003 (ip), vehicle: saline + alcohol). Besides, the T/C is 135 % of control [survivor count not shown] (dose: 2.5 mg/kg/injection, schedule: Q04DX002 (ip), vehicle: saline + alcohol); 178 [survivor count not shown] and 198 % of control [survivor count not shown] (dose: 3.0 mg/kg/injection, schedule: Q04DX003 (ip), vehicle: saline + alcohol); 153 % of control [survivor count not shown] under setting [1]; 208 % of control [survivor count not shown] (dose: 5.0 mg/kg/injection, schedule: Q04DX003 (ip), vehicle: saline + alcohol); 88 % of control [survivor count not shown] (dose: 6.0 mg/kg/injection, schedule: Q04DX003 (ip), vehicle: saline + alcohol); 136 % of control [survivor count not shown] (dose: 389.0 micrograms/kg/injection, schedule: Q04DX003 (ip), vehicle: saline + alcohol). For the same molecule, the T/C runs as follows: (dose: 540.0 micrograms/kg/injection, schedule: Q01DX009 (ip), vehicle: saline + alcohol) 185 % of control [survivor count not shown]; (dose: 648.0 micrograms/kg/injection, schedule: Q04DX003 (ip), vehicle: saline + alcohol) 133 % of control [survivor count not shown]; (dose: 648.0 micrograms/kg/injection, schedule: Q04DX003 (sc), vehicle: saline + alcohol) 150 % of control [survivor count not shown]; (dose: 900.0 micrograms/kg/injection, schedule: Q01DX009 (ip), vehicle: saline + alcohol) 234 % of control [survivor count not shown]; (dose: 1080.0 micrograms/kg/injection, schedule: Q04DX003 (ip), vehicle: saline + alcohol) 139 % of control [survivor count not shown]; (dose: 1080.0 micrograms/kg/injection, schedule: Q04DX003 (sc), vehicle: saline + alcohol) 167 % of control [survivor count not shown]. The T/C by setting is: (dose: 1500.0 micrograms/kg/injection, schedule: Q01DX009 (ip), vehicle: saline + alcohol) 254 % of control [survivor count not shown]; (dose: 1800.0 micrograms/kg/injection, schedule: Q04DX003 (ip), vehicle: saline + alcohol) 161 % of control [survivor count not shown]; (dose: 1800.0 micrograms/kg/injection, schedule: Q04DX003 (sc), vehicle: saline + alcohol) 180 % of control [survivor count not shown]; (dose: 3000.0 micrograms/kg/injection, schedule: Q04DX003 (ip), vehicle: saline + alcohol) 163 % of control [survivor count not shown].
